From patent US20160256565A1, “Composite bioabsorbable barrier membranes with sustained dual drug delivery for tissue engineering and guided tissue regeneration” (priority 2015, published 2016)
At least one structure is not confirmed: it was looked up by name or label, or the drawing left a doubt.

System: osteoblast—monocyte co-cultures
Experiment: Alkaline phosphatase assay on osteoblast—monocyte co-cultures with or without LPS
Type: cell-based, Human
Details: FIG. 9

C[C@H]1c2cccc(O)c2C(=O)C2=C(O)[C@]3(O)C(=O)C(C(N)=O)=C(O)[C@@H](N(C)C)[C@@H]3[C@@H](O)[C@@H]21 [Doxycycline, doxycycline]
alkaline phosphatase expression (osteoblasts co-cultured with monocytes (1:5), no LPS, relative to unstimulated control (group 1)): more potent
down modulation of alkaline phosphatase when LPS was added (osteoblast—monocyte co-cultures (1:5) stimulated with 1 microgram/ml LPS): more resistant
